The test has as its target T1, SUMO5 (tagged, expressed in 293 cells for co-immunoprecipitation) (human) (UniProt G2XKQ0).
T1 sequence: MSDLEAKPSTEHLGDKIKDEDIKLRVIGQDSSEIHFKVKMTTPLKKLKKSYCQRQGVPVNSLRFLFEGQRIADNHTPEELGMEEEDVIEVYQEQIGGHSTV
The experiment in a line: co-IP; co-immunoprecipitation from lysates of 293 cells transfected with the plasmids indicated (Fig. 5F, 5G, 6F).

No constants are given. Whether binding was seen depends on the method and setting. In cells and extracts the contact can be indirect. A result given as binding can be weak or reduced; the word gives no strength. Sequences can lack the tags named with a protein.

Consider PML (human), for which the binding entry is reported as “binds”.
